In the supplement of paper PMC10849652:
The list shows a part of the results.

Chains of the proteins cited; added tags and fusions are not shown. Lines headed by an entry give the natural chain unless they say otherwise; changes in a name come on top.
UniProt Q9UJG1: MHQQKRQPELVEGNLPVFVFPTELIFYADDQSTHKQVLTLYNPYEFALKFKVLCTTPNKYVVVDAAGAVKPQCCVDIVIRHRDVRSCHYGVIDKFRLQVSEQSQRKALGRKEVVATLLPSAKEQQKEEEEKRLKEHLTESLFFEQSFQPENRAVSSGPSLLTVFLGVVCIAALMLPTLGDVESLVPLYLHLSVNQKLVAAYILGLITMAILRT
UniProt Q86TA1: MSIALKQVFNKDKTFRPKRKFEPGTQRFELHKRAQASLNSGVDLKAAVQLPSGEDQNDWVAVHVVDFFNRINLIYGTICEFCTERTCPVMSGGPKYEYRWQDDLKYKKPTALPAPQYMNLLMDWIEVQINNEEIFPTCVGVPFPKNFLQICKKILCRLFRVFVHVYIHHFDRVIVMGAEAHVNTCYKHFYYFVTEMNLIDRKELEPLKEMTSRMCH
UniProt Q8N4V1: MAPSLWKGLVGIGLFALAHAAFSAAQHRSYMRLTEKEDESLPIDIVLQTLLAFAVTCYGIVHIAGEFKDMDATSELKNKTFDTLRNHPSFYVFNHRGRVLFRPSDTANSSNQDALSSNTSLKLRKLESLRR
UniProt Q29983, whole entry, looked up: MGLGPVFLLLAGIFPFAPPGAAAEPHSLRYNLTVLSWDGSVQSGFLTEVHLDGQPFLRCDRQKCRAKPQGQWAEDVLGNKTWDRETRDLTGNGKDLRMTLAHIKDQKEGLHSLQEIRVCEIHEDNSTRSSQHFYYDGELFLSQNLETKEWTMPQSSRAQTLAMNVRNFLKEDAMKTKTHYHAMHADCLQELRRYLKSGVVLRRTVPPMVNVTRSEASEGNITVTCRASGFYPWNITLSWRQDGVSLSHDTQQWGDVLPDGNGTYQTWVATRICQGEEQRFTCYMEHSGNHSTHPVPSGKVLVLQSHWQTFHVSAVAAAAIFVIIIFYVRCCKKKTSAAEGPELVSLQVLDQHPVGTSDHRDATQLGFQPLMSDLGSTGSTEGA
UniProt O96033: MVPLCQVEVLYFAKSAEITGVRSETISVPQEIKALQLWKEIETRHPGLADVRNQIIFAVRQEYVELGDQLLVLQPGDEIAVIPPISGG
UniProt Q8NBR6: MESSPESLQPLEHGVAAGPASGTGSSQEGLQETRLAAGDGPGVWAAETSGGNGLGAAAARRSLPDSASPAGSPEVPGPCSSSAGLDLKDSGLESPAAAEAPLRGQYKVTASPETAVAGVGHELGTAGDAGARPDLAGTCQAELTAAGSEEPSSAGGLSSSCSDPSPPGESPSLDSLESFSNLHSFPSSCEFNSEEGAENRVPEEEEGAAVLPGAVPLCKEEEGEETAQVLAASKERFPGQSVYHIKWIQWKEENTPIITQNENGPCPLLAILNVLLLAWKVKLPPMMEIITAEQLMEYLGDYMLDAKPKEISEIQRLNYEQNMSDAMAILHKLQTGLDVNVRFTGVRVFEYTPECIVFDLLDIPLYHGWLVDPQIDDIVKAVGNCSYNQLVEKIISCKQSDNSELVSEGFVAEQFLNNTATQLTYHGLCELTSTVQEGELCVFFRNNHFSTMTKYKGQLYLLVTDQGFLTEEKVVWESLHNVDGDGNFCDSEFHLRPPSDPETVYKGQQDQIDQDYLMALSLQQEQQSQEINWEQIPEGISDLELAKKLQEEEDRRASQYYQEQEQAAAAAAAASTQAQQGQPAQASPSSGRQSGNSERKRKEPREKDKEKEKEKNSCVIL
UniProt Q5TGZ0: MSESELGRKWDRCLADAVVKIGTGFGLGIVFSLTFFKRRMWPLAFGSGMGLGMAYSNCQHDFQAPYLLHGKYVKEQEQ
UniProt Q70IA6: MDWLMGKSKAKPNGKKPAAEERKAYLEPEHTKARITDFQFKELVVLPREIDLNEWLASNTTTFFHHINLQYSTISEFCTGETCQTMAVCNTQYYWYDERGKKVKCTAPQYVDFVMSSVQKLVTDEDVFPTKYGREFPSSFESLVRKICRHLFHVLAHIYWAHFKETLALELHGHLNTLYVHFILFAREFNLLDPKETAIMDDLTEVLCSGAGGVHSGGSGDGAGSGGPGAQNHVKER
UniProt Q9Y5U8: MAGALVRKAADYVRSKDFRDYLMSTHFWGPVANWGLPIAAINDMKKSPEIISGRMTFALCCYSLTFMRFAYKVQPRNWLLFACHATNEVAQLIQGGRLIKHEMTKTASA
UniProt Q8NB16: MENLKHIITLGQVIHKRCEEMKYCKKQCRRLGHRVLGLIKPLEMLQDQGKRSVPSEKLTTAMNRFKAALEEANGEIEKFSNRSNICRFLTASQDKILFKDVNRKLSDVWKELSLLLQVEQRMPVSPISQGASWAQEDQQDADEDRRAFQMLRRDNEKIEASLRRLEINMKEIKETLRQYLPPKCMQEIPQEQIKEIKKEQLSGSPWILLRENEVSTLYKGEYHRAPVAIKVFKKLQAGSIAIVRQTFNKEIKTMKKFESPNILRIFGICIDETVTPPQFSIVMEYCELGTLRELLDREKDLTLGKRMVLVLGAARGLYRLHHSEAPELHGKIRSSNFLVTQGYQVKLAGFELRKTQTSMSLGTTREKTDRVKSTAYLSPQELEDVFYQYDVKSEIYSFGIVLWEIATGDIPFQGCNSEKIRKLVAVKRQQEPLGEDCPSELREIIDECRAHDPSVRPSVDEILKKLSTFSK
UniProt Q9UI43: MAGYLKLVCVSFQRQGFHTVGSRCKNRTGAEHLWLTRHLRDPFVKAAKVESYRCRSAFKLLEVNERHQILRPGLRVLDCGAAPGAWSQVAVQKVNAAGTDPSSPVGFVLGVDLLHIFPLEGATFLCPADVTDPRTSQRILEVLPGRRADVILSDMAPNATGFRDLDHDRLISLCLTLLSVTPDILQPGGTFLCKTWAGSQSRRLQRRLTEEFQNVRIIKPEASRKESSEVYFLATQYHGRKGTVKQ
UniProt O95297: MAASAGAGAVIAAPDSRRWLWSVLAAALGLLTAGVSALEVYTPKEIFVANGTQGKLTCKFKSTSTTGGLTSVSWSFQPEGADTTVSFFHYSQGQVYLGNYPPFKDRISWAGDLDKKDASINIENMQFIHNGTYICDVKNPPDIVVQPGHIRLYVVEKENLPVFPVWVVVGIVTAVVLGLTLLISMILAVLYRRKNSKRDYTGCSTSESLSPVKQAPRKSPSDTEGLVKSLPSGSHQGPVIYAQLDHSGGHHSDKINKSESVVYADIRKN
UniProt P55197: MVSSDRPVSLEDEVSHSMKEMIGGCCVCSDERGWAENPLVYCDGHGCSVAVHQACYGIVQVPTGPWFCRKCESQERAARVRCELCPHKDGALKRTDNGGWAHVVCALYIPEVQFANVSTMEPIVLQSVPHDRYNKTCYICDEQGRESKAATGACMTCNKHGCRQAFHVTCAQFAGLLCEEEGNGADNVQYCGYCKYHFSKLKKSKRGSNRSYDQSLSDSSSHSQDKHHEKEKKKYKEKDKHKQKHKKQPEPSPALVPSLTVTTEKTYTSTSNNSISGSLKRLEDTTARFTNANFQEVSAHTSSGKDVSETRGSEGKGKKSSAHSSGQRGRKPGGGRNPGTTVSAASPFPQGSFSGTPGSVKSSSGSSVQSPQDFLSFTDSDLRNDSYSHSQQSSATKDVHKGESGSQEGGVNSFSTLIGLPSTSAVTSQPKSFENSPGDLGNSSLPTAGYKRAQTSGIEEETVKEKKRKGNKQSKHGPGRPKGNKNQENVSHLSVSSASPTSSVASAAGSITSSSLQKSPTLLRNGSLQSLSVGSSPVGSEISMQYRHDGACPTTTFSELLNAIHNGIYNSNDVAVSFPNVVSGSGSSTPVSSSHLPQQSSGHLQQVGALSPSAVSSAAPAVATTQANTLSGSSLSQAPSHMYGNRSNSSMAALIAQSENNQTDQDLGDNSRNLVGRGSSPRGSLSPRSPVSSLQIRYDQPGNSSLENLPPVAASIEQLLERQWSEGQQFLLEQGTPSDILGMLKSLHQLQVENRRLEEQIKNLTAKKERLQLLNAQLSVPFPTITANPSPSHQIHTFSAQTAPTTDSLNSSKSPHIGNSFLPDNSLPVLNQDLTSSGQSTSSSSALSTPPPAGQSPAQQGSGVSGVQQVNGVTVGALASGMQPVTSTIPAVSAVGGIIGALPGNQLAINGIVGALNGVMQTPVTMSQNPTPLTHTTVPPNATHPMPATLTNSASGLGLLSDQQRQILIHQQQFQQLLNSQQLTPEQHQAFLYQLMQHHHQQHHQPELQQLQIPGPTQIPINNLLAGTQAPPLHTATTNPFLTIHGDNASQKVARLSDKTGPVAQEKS
UniProt Q6NTE8: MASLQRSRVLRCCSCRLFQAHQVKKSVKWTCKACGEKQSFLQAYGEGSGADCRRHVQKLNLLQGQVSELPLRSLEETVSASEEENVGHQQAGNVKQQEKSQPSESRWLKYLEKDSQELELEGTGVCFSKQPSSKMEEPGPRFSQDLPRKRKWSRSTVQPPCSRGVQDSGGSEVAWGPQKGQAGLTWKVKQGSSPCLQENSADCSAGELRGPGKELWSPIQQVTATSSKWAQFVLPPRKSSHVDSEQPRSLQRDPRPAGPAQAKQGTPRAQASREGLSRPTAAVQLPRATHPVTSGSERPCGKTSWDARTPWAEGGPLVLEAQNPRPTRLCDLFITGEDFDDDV
UniProt Q86VX9: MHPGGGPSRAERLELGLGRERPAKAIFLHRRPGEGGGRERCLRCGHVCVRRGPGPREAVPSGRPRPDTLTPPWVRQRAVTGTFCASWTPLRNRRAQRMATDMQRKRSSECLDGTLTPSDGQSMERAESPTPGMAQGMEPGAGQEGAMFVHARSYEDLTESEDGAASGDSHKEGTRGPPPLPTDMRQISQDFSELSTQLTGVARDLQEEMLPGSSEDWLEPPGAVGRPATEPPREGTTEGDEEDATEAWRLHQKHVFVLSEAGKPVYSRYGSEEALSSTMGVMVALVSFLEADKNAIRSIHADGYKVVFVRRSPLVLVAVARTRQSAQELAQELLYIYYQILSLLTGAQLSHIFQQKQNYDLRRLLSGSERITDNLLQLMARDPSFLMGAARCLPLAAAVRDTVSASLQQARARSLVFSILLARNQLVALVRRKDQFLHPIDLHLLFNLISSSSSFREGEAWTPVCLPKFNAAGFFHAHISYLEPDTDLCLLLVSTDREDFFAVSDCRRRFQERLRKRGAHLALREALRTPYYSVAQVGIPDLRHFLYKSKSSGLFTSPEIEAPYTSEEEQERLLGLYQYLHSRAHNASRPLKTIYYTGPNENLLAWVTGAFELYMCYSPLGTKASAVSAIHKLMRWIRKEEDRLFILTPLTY
UniProt Q8N344: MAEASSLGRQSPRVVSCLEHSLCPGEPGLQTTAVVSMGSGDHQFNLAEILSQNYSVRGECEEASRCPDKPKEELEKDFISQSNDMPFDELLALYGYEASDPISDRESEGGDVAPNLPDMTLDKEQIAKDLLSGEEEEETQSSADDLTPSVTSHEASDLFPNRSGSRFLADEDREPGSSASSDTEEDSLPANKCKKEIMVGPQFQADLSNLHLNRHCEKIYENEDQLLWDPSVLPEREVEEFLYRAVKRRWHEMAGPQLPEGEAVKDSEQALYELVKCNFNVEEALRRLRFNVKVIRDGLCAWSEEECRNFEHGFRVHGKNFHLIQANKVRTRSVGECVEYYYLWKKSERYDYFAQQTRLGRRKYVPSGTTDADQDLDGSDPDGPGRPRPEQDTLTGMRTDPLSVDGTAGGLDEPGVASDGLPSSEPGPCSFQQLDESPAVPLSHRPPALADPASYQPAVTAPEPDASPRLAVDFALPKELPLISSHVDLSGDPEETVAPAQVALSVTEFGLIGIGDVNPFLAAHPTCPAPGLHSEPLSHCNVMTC
UniProt Q13064: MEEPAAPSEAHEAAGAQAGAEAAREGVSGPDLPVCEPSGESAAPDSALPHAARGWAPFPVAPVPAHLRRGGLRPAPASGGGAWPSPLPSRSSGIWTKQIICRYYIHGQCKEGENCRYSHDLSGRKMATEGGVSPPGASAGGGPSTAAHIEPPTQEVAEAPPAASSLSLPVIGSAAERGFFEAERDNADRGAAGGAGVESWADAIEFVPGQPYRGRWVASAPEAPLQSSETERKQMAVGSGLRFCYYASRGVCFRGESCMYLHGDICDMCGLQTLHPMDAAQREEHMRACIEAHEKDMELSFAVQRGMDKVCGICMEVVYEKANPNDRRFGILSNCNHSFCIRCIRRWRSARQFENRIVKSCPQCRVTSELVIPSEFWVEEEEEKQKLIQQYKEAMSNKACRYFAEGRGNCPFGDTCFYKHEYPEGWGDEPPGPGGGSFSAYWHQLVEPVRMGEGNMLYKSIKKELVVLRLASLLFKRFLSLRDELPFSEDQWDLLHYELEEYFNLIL
UniProt P39210: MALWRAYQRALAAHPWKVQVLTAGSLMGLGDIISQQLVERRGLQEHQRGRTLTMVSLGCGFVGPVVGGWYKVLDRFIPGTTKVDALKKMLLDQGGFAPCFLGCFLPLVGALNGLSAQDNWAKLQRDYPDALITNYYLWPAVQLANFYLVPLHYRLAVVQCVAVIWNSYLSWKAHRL
UniProt Q13015: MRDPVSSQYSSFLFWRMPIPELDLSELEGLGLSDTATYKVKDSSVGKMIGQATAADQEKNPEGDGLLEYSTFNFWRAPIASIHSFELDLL

What was measured:
Test in all cases: log2 fold change, soluble protein after heating vs DMSO (PISA); higher = thermal stabilisation; K562 cells, 10 uM, 30 min; active = over 0.2 and 3.5 SD of the protein, either way, in both replicates (recomputed)
[1] = compound: COc1cc(Nc2ncc3c(n2)-c2ccc(Cl)cc2C(c2c(F)cccc2OC)=NC3)ccc1C(=O)O [alisertib]
Method in brief: (§1)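 K562 cells at 2×10^6 cells/mL were treated with 10 μM compound for 30 min. Aliquots were heated for 3 min across 48°C-58°C, pooled, and extracted in PBS with 0.5% NP-40 at 4°C; soluble protein was the supernatant after 21,000xg for 90 min. Soluble protein was quantified by TMTpro 16plex LC-MS/MS with channel sums equalised, and reported as log2 fold change in thermal stability against DMSO controls, with values from duplicates.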

[2] = compound: COc1cc2ncnc(Nc3ccc(F)c(Cl)c3)c2cc1OCCCN1CCOCC1 [gefitinib]
Method in brief: as §1

[3] = compound: COc1cccc2cc(-c3nc([C@H]4CC[C@H](C(=O)O)CC4)n4ncnc(N)c34)[nH]c12
Method in brief: as §1

[4] = compound: CS(=O)(=O)N1CCN(Cc2cc3nc(-c4cccc5[nH]ncc45)nc(N4CCOCC4)c3s2)CC1 [pictilisib]
Method in brief: as §1

[5] = compound: CON(C)C(=O)N1N=C(c2cc(F)ccc2F)S[C@@]1(CCCN)c1ccccc1 [filanesib]
Method in brief: as §1

[6] = compound: COc1cc(C(=O)O)ccc1NC(=O)[C@@H]1N[C@@H](CC(C)(C)C)[C@](C#N)(c2ccc(Cl)cc2F)[C@H]1c1cccc(Cl)c1F [idasanutlin]
Method in brief: as §1

[7] = compound: COc1cc2nc(-c3cc(F)ccc3O)nc(N[C@@H]3CNC[C@H]3C(C)(C)O)c2cc1OC
Method in brief: as §1

[8] = compound: CS(=O)(=O)CCNCc1ccc(-c2ccc3ncnc(Nc4ccc(OCc5cccc(F)c5)c(Cl)c4)c3c2)o1 [lapatinib]
Method in brief: as §1

[9] = compound: COC1=CC=C(C=C1)CN2C=CC3=C2C=C(C=C3)C(=O)NO
Method in brief: as §1

[10] = compound: CO[C@H]1C[C@@H]2CC[C@@H](C)[C@@](O)(O2)C(=O)C(=O)N2CCCC[C@H]2C(=O)O[C@H]([C@H](C)C[C@@H]2CC[C@H](n3cnnn3)[C@H](OC)C2)CC(=O)[C@H](C)/C=C(\C)[C@@H](O)[C@@H](OC)C(=O)[C@H](C)C[C@H](C)/C=C/C=C/C=C/1C [zotarolimus]
Method in brief: as §1

Row | Target | log2 fold change [1] | log2 fold change [2] | log2 fold change [3] | log2 fold change [4] | log2 fold change [5] | log2 fold change [6] | log2 fold change [7] | log2 fold change [8] | log2 fold change [9] | log2 fold change [10]
1 | MOSPD1 isoform 3 (UniProt Q9UJG1) | inactive: -0.134 | inactive: -0.064 | inactive: -0.246 | inactive: -0.116 |  |  |  |  |  | 
2 | MRPL57 (UniProt Q9BQC6) | inactive: -0.026 | inactive: -0.052 | inactive: -0.055 | inactive: -0.073 | inactive: 0.214 | inactive: -0.031 | inactive: -0.063 | inactive: 0.229 |  | 
3 | MOB3B (UniProt Q86TA1) | inactive: -0.001 | inactive: 0.384 | inactive: -0.011 | inactive: 0.067 |  | inactive: -0.24 | inactive: 0.04 | inactive: -0.033 | inactive: 0.355 | inactive: -0.087
4 | MICAL2 (UniProt O94851) | inactive: -0.012 |  | inactive: 0.201 | inactive: 0.034 |  | inactive: 0.065 |  |  | inactive: 0.189 | inactive: -0.097
5 | MRPL18 (UniProt Q9H0U6) | inactive: -0.192 | inactive: 0 | inactive: -0.211 | inactive: -0.151 | inactive: 0.153 |  | inactive: 0.036 | inactive: 0.141 | inactive: 0 | inactive: -0.176
6 | MMGT1 (UniProt Q8N4V1) |  | inactive: -0.118 |  |  | inactive: -0.031 | inactive: -0.032 | inactive: 0.052 | inactive: 0.033 | inactive: 0.039 | inactive: 0.044
7 | MICB, A0A140T979 | inactive: -0.089 | inactive: 0.073 | inactive: 0.007 | inactive: 0.088 |  | inactive: 0.025 | inactive: 0.044 | inactive: -0.039 | inactive: 0.005 | inactive: -0.029
8 | MICA (UniProt Q29983) |  |  |  | inactive: -0.06 | inactive: 0.152 | inactive: 0.069 | inactive: 0.047 | inactive: 0.001 |  | 
9 | MOCS2 (UniProt O96033) |  |  |  | inactive: -0.271 | inactive: 0.107 | inactive: 0.113 |  |  |  | inactive: -0.178
10 | MORC2 (UniProt Q9Y6X9) | inactive: -0.012 |  | inactive: -0.013 |  |  | inactive: -0.018 | inactive: 0.134 | inactive: -0.118 | inactive: 0.195 | 
11 | MRAS (UniProt O14807) | inactive: 0.172 | inactive: -0.002 | inactive: 0.121 | inactive: 0.204 |  |  |  |  | inactive: -0.034 | 
12 | MINDY2 (UniProt Q8NBR6) | inactive: -0.566 |  | inactive: 0.047 |  |  |  |  |  |  | inactive: 0.21
13 | MICOS10 (UniProt Q5TGZ0) | inactive: 0.073 | inactive: 0.02 | inactive: -0.054 | inactive: 0.024 | inactive: -0.059 | inactive: -0.04 | inactive: -0.106 | inactive: -0.028 | inactive: -0.098 | 
14 | MOB2 isoform 3 (UniProt Q70IA6) | inactive: -0.066 | inactive: 0.051 | inactive: 0.02 | inactive: 0.06 |  |  | inactive: -0.184 | inactive: 0.025 |  | inactive: 0.205
15 | MPC1 (UniProt Q9Y5U8) | inactive: -0.23 | inactive: -0.061 | inactive: -0.023 |  | inactive: -0.08 | inactive: -0.035 | inactive: -0.116 | inactive: 0.113 |  | inactive: 0.114
16 | MLKL (UniProt Q8NB16) |  |  |  | inactive: -0.069 | inactive: -0.074 |  | inactive: -0.202 | inactive: 0.025 | inactive: -0.03 | inactive: -0.225
17 | MMADHC (UniProt Q9H3L0) | inactive: 0.006 | inactive: 0.305 | inactive: 0.013 | inactive: -0.114 |  | inactive: -0.135 | inactive: 0.056 | inactive: 0.176 | inactive: -0.031 | inactive: 0.102
18 | MRM2 (UniProt Q9UI43) |  | inactive: 0.066 |  |  |  | active: 0.518 | inactive: 0.078 | inactive: 0.108 |  | inactive: 0.11
19 | MPZL1 isoform 3 (UniProt O95297) |  |  |  |  |  | inactive: -0.104 |  |  |  | inactive: 0.07

A different layout for part of the listing above.
Row	Target	log2 fold change [1]	log2 fold change [2]	log2 fold change [3]	log2 fold change [4]	log2 fold change [5]	log2 fold change [6]	log2 fold change [7]	log2 fold change [8]	log2 fold change [9]	log2 fold change [10]
3	MOB3B (UniProt Q86TA1)	inactive: -0.001	inactive: 0.384	inactive: -0.011	inactive: 0.067		inactive: -0.24	inactive: 0.04	inactive: -0.033	inactive: 0.355	inactive: -0.087
10	MORC2 (UniProt Q9Y6X9)	inactive: -0.012		inactive: -0.013			inactive: -0.018	inactive: 0.134	inactive: -0.118	inactive: 0.195	

Next part.

Row | Target | log2 fold change [1] | log2 fold change [2] | log2 fold change [3] | log2 fold change [4] | log2 fold change [5] | log2 fold change [6] | log2 fold change [7] | log2 fold change [8] | log2 fold change [9] | log2 fold change [10]
20 | MLLT10 (UniProt P55197) | inactive: -0.011 |  | inactive: 0.327 | inactive: -0.155 |  |  | inactive: 0.162 | inactive: 0.021 |  | 
21 | MMRN1 (UniProt Q13201) |  |  |  |  | inactive: -0.149 |  |  |  |  | 
22 | MKKS (UniProt Q9HB66) | inactive: -0.079 | inactive: 0.052 | inactive: 0.043 | inactive: 0.042 | inactive: -0.02 | inactive: 0.028 |  |  |  | inactive: -0.039
23 | MRNIP (UniProt Q6NTE8) | inactive: 0.215 | inactive: -0.126 | inactive: 0.117 | inactive: 0.099 | inactive: 0.033 |  | inactive: 0.083 | inactive: -0.046 | inactive: -0.14 | 
24 | MIGA2 (UniProt Q7L4E1) |  |  |  |  |  |  |  |  |  | inactive: 0.193
25 | MON1A (UniProt Q86VX9) | inactive: 0.291 | inactive: 0.427 | inactive: 0.049 | inactive: -0.011 | inactive: -0.023 |  | inactive: -0.042 | inactive: -0.003 | inactive: -0.118 | 
26 | MIER2 (UniProt Q8N344) |  |  |  |  |  | inactive: 0.177 |  |  |  | inactive: -0.072
27 | MID1IP1 (UniProt Q9NPA3) | inactive: 0.017 | inactive: 0.146 | inactive: -0.113 | inactive: 0.207 | inactive: 0.273 |  | inactive: 0.071 | inactive: 0.051 | inactive: -0.269 | 
28 | MINDY4 (UniProt Q4G0A6) |  |  |  |  | inactive: -0.004 |  |  |  |  | 
29 | MMAA (UniProt Q8IVH4) |  |  |  |  | inactive: 0 | inactive: -0.071 | inactive: -0.038 | inactive: -0.244 |  | inactive: 0.073
30 | MKRN3 (UniProt Q13064) |  | inactive: 0.009 |  |  | inactive: -0.046 | inactive: -0.167 | inactive: 0.094 | inactive: -0.074 | inactive: -0.147 | 
31 | MMP15 (UniProt P51511) |  |  |  | inactive: -0.104 |  |  |  |  |  | 
32 | MKRN1 (UniProt Q9UHC7) | inactive: -0.145 | inactive: -0.269 | inactive: -0.408 | inactive: -0.086 |  |  | inactive: -0.059 | inactive: 0.052 | inactive: -0.074 | inactive: -0.015
33 | MME (UniProt P08473) | inactive: -0.076 |  | inactive: -0.146 |  |  |  |  |  |  | 
34 | MPV17 (UniProt P39210) | inactive: -0.091 | inactive: 0.085 | inactive: 0.03 | inactive: 0.042 | inactive: -0.038 | inactive: -0.103 | inactive: 0.003 | inactive: -0.142 |  | inactive: 0.082
35 | MR1 (UniProt Q95460) | inactive: -0.049 |  | inactive: -0.323 |  |  |  |  |  | inactive: -0.065 | 
36 | MLLT11 (UniProt Q13015) | inactive: -0.021 | inactive: 0.046 | inactive: -0.049 | inactive: -0.057 | inactive: 0.071 |  | inactive: -0.069 | inactive: -0.164 | inactive: 0.187 | inactive: -0.064
37 | MRPL52 (UniProt Q86TS9) |  |  |  |  | inactive: 0.016 |  |  |  |  | 
